Taken from: PubChem BioAssay AID504804 (Drosophila RNAi Screening Center, 2011)
The deposit covers about 19,000 reagents; this is an unselected part of those with a known target gene and a result. Over the whole deposit, 47 (0.25%) are marked active. 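Signals are raw, not normalised; exact z-scores behind calls not deposited; actives needed confirmation, so some wells reaching 2 SD are inactive.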 A plus sign joins genes that one reagent is predicted to hit.

Purpose: 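dsRNAs that improve Kc cell survival under doxorubicin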 (primary screen)
System: Drosophila Kc cells
Reagents: long dsRNA against Drosophila genes, 0.5 µg dsRNA per well
Duration: 96 h (48 h knock-down, then 48 h drug)
Challenge: doxorubicin 5 µg/ml for 48 h, added 48 h after dsRNA
Detection: 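Viability measured as cellular ATP by luminescence after 48 h knock-down then 48 h doxorubicin at 5 µg/ml; unnormalised plate counts for each replicate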
Reading the numbers: raw ATP luminescence: higher = more viable cells, protection from doxorubicin
Active means: 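z-score of 2 or more over plate mean in both duplicates, retained only when retests and separate dsRNAs confirm the protection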

The first 2 entries as a preview:
flz | raw ATP luminescence, replicate 1 = 40787; raw ATP luminescence, replicate 2 = 72360; Call = inactive
CG1172 | raw ATP luminescence, replicate 1 = 64487; raw ATP luminescence, replicate 2 = 59000; Call = inactive

The list itself, repeating the preview:
flz | raw ATP luminescence, replicate 1 = 40787; raw ATP luminescence, replicate 2 = 72360; Call = inactive
CG1172 | raw ATP luminescence, replicate 1 = 64487; raw ATP luminescence, replicate 2 = 59000; Call = inactive
Cth | raw ATP luminescence, replicate 1 = 76203; raw ATP luminescence, replicate 2 = 66057; Call = inactive
CG12849 | raw ATP luminescence, replicate 1 = 43927; raw ATP luminescence, replicate 2 = 62870; Call = inactive
CG30385 | raw ATP luminescence, replicate 1 = 42687; raw ATP luminescence, replicate 2 = 72920; Call = inactive
CG12644 (retired record) | raw ATP luminescence, replicate 1 = 4.35e5; raw ATP luminescence, replicate 2 = 3.35e5; Call = inactive
tbrd-1 | raw ATP luminescence, replicate 1 = 71970; raw ATP luminescence, replicate 2 = 60560; Call = inactive
mfrn | raw ATP luminescence, replicate 1 = 40610; raw ATP luminescence, replicate 2 = 29420; Call = inactive
CG5762 | raw ATP luminescence, replicate 1 = 52597; raw ATP luminescence, replicate 2 = 57940; Call = inactive
GstO2 | raw ATP luminescence, replicate 1 = 36070; raw ATP luminescence, replicate 2 = 37917; Call = inactive
CG32195 | raw ATP luminescence, replicate 1 = 90633; raw ATP luminescence, replicate 2 = 89693; Call = inactive
nerfin-2 | raw ATP luminescence, replicate 1 = 61503; raw ATP luminescence, replicate 2 = 45100; Call = inactive
Idgf2 | raw ATP luminescence, replicate 1 = 87170; raw ATP luminescence, replicate 2 = 51940; Call = inactive
DUBAI + Tmem18 | raw ATP luminescence, replicate 1 = 93360; raw ATP luminescence, replicate 2 = 84123; Call = inactive
Rbsn-5 | raw ATP luminescence, replicate 1 = 1.24e5; raw ATP luminescence, replicate 2 = 60443; Call = inactive
PAN3 | raw ATP luminescence, replicate 1 = 50610; raw ATP luminescence, replicate 2 = 44333; Call = inactive
Cht9 | raw ATP luminescence, replicate 1 = 88200; raw ATP luminescence, replicate 2 = 52583; Call = inactive
CG12942 | raw ATP luminescence, replicate 1 = 33357; raw ATP luminescence, replicate 2 = 43430; Call = inactive
Cp16 | raw ATP luminescence, replicate 1 = 85820; raw ATP luminescence, replicate 2 = 96143; Call = inactive
